Results taken from patent US11110070B2 (priority 2015, dated 2021).

How the values were obtained:
Assay type in all cases: in vivo
[1] = tested on: 129S6/SvEvTac mice; assay: Fighting behavior during SD bouts
Procedure: Adult aggressor CD-1 male mice were single-housed in Macrolon® polycarbonate resin cages (15.25 in×7.8 in×9.5 in) (Animal Care Systems, Inc., Centennial, Colo.). Male 129S6/SvEvTac mice (9 weeks of age) were subsequently placed into the resident. CD-1 mouse's cage. Three antagonistic encounters were allowed between the CD-1 mouse and the intruder. Each of these encounters typically lasted less than 5 min. Following the encounters, mice were separated by a polished stainless steel cage divider (Animal Care Systems, Inc., Centennial, Colo., P/N C79171), which allowed for olfactory and auditory communication, but limited visual or tactile contact. The partition was removed daily for 2 weeks and 3 antagonistic encounters were allowed between the mice each day. This procedure consistently yielded a submissive phenotype in the experimental intruder mice. Control (Ctrl) mice were group housed 4 to 5 per cage in Macrolon® polycarbonate resin cages without dividers.

[2] = tested on: 129S6/SvEvTac mice; assay: Learned helplessness (LH) shock escape; details: ketamine 30 mg kg^−1 1 week before LH training; vs saline
Procedure: Experiment 4 (Pre-ketamine in learned helplessness (LH)); At 8 weeks of age, a single injection of saline or ketamine (30 mg kg^−1) was administered. One week following this injection, LH training (inescapable shock) was administered. Two weeks later, mice were administered LH testing (shock escape).
The LH paradigm was used to induce depressive-like behavior (A4). In this paradigm, mice are exposed to unpredictable and uncontrollable stress (shocks) and then develop coping deficits to deal with the inescapable shocks. We modified a previously published paradigm (A5). Briefly, the procedure was conducted in a two-chamber shuttle box (model ENV 010MD; Med Associates, St. Albans, Vt.) located within a sound-attenuated cubicle. The grid floor was made of stainless steel and connected to a shock generator. The scrambled shock generator (model ENV 414S, Med Associates) created varying electrical potential differences between bars preventing an animal from avoiding shock.
Inescapable shock (training): At approximately 9 weeks of age, mice were trained in the LH paradigm. For each shuttle box, 2 animals were administered the protocol at the same time: the central door was closed, with one animal in the chamber on each side. After a 3 min habituation period, the shock deliveries began. […]

[3] = tested on: C57BL/6NTac mice; assay: NSF in CORT model; details: ketamine 90 mg kg^−1 before CORT
Procedure: Experiment 5 (Pre-ketamine and pre-fluoxetine corticosterone (CORT)): C57BL16NTac mice were injected with ketamine (10, 30, 90 mg kg^−1, i.p.) 1 week before the start of CORT, or administered fluoxetine (18 mg kg^−1 per day) in the drinking water for 3 weeks before the start of CORT. Ketamine was purchased from Merial (100 mg/ml stock solution). Fluoxetine hydrochloride (160 μg/mL, equivalent to 18 mg kg^−1 per day in the drinking water) was purchased from Anawa Trading (Zurich, Switzerland) and dissolved in 0.45% hydroxypropyl-β-cyclodextrin (β-CD) (Sigma-Aldrich, Saint-Quentin Fallavier, France) solution. Following ketamine or fluoxetine treatment, CORT was administered for 3 weeks in the drinking water. CORT (4-pregnen-11b-DIOL-3 20-DIONE 21-hemisuccinate) (35 μg/ml) from. Sigma Aldrich (Saint-Quentin Fallavier, France) was dissolved in vehicle (0.45% β-CD). Control animals received vehicle (0.45% β-CD) throughout the duration of the experiment. […]
Testing was performed as previously described (A13). […] The latency of the mice to begin eating was recorded. Immediately after the latency was recorded, the food pellet was removed from the arena. The mice were then placed into a cage and the amount of food consumed in 5 min was measured (home cage consumption), followed by an assessment of post-restriction weight. […]

[4] = tested on: 129S6/SvEvTac mice; assay: 3-shock CFC, extinction and reinstatement paradigm
Procedure: A single injection of saline (0.9% NaCl) far ketamine (30 mg kg^−1) (Ketaset III, Ketamine HCl injection, Fort Dodge Animal Health, Forth Dodge, Iowa) was administered once during the course of each experiment.
A 3-shock CFC paradigm was administered as previously described (Drew et al., 2010; Denny et al., 2014). Mice were placed in the conditioning chamber and received 3 shocks 180, 240, and 300 s later (2 s, 0.75 mA) and were removed 15 s following the last shock. All sessions were scored for freezing using FreezeView2http://actimetrics.com/downloads/freezeframe/).
Extinction began 4 days after the initial 3-shock CFC procedure, or 4 days after the reinstatement procedure. Each group of mice was subjected to 2 extinction trials per day. Each extinction trial lasted 30 min, with an intertrial interval of at least 2 h. For each extinction trial, mice were placed in the same box used for CFC without receiving foot shocks. All trials were scored for freezing. The freezing presented throughout the text represents averaged freezing behavior for the first 3 min of each extinction trial.
Reinstatement took place in the same Coulbourn fear conditioning box, but with altered cues. A 1-shock CFC paradigm was administered as previously described (Drew et al., 2010; Denny et al., 2012; Denny et al., 2014), with the exception of two experiments in which the mice were administered 3 shocks.

[5] = tested on: 129S6/SvEvTac mice; assay: Open field (OF) after reinstatement
Procedure: OF protocol was administered as previously described (Richardson-Jones et al., 2010).

## CNC1(c2ccccc2Cl)CCCCC1=O (racemic) [ketamine, (RS)-2-(2-chlorophenyl)-2-(methylamino)cyclohexanone]
[1]; SD bouts, ketamine vs saline
  number of approaches to the CD-1: did not differ between the groups
  percent of time vocalizing: did not differ between the groups
[1]; ketamine before SD, week 1 or week 2
  total fighting bout length: did not differ between groups
[2]
  activity in the habituation phase during LH testing: did not differ between groups
[3]
  home cage food consumption in NSF: increased home cage food consumption
[4]; ketamine 1 month before CFC
  shock response (distance traveled): did not alter the shock response; also recorded: traveled comparably
[4]; ketamine 24 h before CFC
  path length during the shocks: did not alter; also recorded: traveled equally during the shock presentation
[5]; ketamine 1 week prior to 1-shock reinstatement
  locomotion in the OF: comparable locomotion during the OF; also recorded: equal levels of movement in the OF
[5]; ketamine 1 week prior to 3-shock reinstatement
  basic movements in the OF: similar; also recorded: equal levels of movement in the OF

“Also recorded” adds a separate entry of the source.
